For part of these data: At least one read-out could not be matched to a standard name with certainty. Some entries share one result that the patent states for a list of compounds.
Tests used:
PARP10cat = target: T1, PARP10cat (Homo sapiens, UniProt Q53GL7); test: Inhibition of PARP10cat-mediated ADP-ribosylation of SRPK2 using NAD+ (100 μM); assay type: biochemical; conditions: 12 vs 8; 14 vs 3; 20, 22 vs 16; 23, 24 vs 15
T1 sequence (Q53GL7 806-1025 limits assumed): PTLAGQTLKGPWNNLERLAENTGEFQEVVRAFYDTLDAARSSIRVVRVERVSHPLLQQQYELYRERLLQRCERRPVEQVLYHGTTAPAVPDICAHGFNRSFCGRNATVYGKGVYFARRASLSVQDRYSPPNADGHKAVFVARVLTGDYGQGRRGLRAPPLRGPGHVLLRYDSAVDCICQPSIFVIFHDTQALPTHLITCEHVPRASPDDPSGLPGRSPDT

PARP10 = target: T2, PARP10 (Homo sapiens, UniProt Q53GL7); test: PARP10-dependent ADP-ribosylation in HEK293T cells expressing GFP-PARP10, Western blot with ADP-ribose binding reagent; assay type: cell-based; conditions: concluded from activity in HEK293T cells
T2 construct: Human embryonic kidney (HEK) 293T cells expressing full-length PARP10; expressed in transfected cells; host or cells: HEK293T
T2 sequence (Q53GL7 1-1025): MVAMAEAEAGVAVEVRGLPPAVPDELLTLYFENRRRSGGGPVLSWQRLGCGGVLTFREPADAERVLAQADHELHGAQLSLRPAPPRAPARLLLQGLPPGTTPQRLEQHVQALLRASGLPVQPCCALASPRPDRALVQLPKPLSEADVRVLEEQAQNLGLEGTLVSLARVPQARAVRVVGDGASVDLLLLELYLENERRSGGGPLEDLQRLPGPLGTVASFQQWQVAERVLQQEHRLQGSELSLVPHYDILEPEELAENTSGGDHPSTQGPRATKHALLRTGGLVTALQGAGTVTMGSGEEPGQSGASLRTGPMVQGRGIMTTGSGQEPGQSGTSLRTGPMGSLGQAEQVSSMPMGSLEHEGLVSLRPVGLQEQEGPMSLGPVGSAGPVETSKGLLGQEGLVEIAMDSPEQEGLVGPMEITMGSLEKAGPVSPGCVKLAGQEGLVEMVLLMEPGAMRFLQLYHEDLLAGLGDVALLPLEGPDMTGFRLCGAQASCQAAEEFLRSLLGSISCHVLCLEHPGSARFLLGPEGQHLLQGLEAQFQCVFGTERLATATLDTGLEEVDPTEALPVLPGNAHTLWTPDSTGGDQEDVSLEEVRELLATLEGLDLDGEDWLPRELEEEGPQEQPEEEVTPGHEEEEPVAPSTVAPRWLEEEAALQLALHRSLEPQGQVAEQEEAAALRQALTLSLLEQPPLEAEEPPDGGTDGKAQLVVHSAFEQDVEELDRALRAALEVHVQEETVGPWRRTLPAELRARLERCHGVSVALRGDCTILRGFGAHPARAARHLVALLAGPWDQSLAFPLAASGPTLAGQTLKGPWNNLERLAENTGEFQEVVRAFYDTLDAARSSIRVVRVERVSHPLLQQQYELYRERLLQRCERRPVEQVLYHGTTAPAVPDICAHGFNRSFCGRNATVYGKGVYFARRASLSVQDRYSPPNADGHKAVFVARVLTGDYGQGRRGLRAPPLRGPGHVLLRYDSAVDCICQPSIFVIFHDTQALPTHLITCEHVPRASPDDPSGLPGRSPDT
Method: We next determined if 22 could inhibit PARP10-dependent ADP-ribosylation in cells. […] Med. Chem. Lett. 25, pp. 4770-4773} Human embryonic kidney (HEK) 293T cells expressing full-length PARP10 were treated with increasing concentrations of 22 (1-100 μM). […] The EC50 value varies depending on the species quantified.
HEK293T cells were transfected with GFP-PARP10 and incubated with increasing concentrations of 22 (1-100 μM) for 3 h. Lysates were prepared and auto-ADP-ribosylation of PARP10 and its high molecular weight (HMW) targets were analyzed with an ADP-ribose binding reagent (α-APDr) (FIG. 2B) Quantification of data shown in FIG. 2(a).

Cc1c(-c2cncc(C(F)(F)F)c2)ccc2c1CCNC2=O [Compound 24, 5-methyl-6-(5-(trifluoromethyl)pyridin-3-yl)-3,4-dihydroisoquinolin-1(2H)-on]
improvement in selectivity for PARP10 over PARP11 compared to parent compound (PARP10cat): > 2 fold

Cc1c(-c2ccnc(C(F)(F)F)c2)ccc2c1CCNC2=O [Compound 22, 5-methyl-6-(2-(trifluoromethyl)pyridin-4-yl)-3,4-dihydroisoquinolin-1(2H)-one]
membrane permeability (PARP10): membrane permeable

Cc1c(-c2cncc(F)c2)ccc2c1CCNC2=O [Compound 23, 6-(5-fluoropyridin-3-yl)-5-methyl-3,4-dihydroisoquinolin-1(2H)-one]
improvement in selectivity for PARP10 over PARP11 compared to parent compound (PARP10cat): > 2 fold
